The list shows a part of the results.
Molecular target: T1, OsSMF1 (Oryza sativa, UniProt Q6ZLB0 1-436)
T1 sequence: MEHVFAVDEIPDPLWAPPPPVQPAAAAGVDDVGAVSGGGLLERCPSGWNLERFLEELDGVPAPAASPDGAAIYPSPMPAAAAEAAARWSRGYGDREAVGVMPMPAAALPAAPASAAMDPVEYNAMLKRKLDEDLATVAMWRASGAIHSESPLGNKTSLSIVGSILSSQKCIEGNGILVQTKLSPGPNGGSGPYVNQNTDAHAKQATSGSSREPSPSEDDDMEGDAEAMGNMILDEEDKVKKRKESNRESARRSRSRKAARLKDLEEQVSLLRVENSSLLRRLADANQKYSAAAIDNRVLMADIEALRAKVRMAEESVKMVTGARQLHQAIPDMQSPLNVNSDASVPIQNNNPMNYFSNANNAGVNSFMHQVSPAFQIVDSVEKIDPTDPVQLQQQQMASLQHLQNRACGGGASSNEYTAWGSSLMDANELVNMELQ
Test: protein-binding microarray (RPBM); PBS, 2% BSA, 51.3 ng/ul salmon testes DNA, 50 uM zinc acetate, 200 nM TF, 25 C, 1 h; high values mean tight binding
Conditions: protein: recombinant; tags: N-terminal polyhistidine and DsRed monomer fusion (pET32a); chain copies: 2; label: CyDye5-dUTP incorporated in the synthesized complementary strand; 3' TTTTT single-stranded linker to array surface; dsDNA, one strand shown
How it was run: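 A custom Agilent array was converted to double-stranded form by primer extension with Cy5-dUTP and blocked with 2% BSA. Protein at 200 nM in PBS with 2% BSA, salmon testes DNA and 50 µM zinc acetate was applied for 1 h at 25 °C, followed by washing. The proteins were polyhistidine–DsRed N-terminal fusions of transcription factors, expressed in E. coli BL21-CodonPlus and Ni–NTA-purified. The binding signal is per-feature fluorescence intensity (arbitrary units) from an Axon 4000B scanner.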

Sequence | binding signal
TTCAGTCGCTGACATCAGTTCAGCCTGACTTGTTCCAATACGGAGTCACCTAGTGCAG | 3660 fluorescence intensity (a.u.)
ATATATATATATATATATATGGCAACGTAATCCTTCTGTTCGGAGTCACCTAGTGCAG | 3440 fluorescence intensity (a.u.)
CTCTGGGTAGTTATGACGTTATACTGGGTATGGATTGGCTCGGAGTCACCTAGTGCAG | 4060 fluorescence intensity (a.u.)
GCATGGGCAGCCTAGCATGCTTGCGTGGACAGTCTGGCGGCGGAGTCACCTAGTGCAG | 12000 fluorescence intensity (a.u.)
TTTTAAAATAGTGTGGGCCATGTGGGCCCCACATGTCAGTCGGAGTCACCTAGTGCAG | 3610 fluorescence intensity (a.u.)
ATCTCATGGGCCATGACGTATACAAACCTATATGGGCCTTCGGAGTCACCTAGTGCAG | 4070 fluorescence intensity (a.u.)
CTGGGTCACAGGTAGTCGCTTCATCGGCAGCCGCGTTGCCCGGAGTCACCTAGTGCAG | 29000 fluorescence intensity (a.u.)
GATCTTATTGTGGGCGGCTGGCTGACTGTTGCTGTTGTATCGGAGTCACCTAGTGCAG | 3580 fluorescence intensity (a.u.)
ACATCCGCGAAAAGGAGGAGGAAACAGGCGAAGCGAGGAGCGGAGTCACCTAGTGCAG | 3660 fluorescence intensity (a.u.)
AATAAGTAGCTAATGCTTATGTGTTACTCTACCATTGGATCGGAGTCACCTAGTGCAG | 5760 fluorescence intensity (a.u.)
ATGGACAAACATTACCAAACAGTCACTAATTCTACTACAACGGAGTCACCTAGTGCAG | 3560 fluorescence intensity (a.u.)
ATGGGCCTACTGTCAGTGGCATGAGAGGACCACCGTGTACCGGAGTCACCTAGTGCAG | 3240 fluorescence intensity (a.u.)
AGCTGCCACCGCCATTGGAGCGCCACGCCACGACACGCGCCGGAGTCACCTAGTGCAG | 4800 fluorescence intensity (a.u.)
GCATGCTCTTCTGATCTGTAATCTCAGGCTCTATTACTCTCGGAGTCACCTAGTGCAG | 3450 fluorescence intensity (a.u.)
GCACATGACTGTGCAAACGCTGTTCCTGATCTGAGTAAGACGGAGTCACCTAGTGCAG | 4170 fluorescence intensity (a.u.)
CACACGGGCACGCCGCGGCGGCCACGTTCTCTTCCCGCTCCGGAGTCACCTAGTGCAG | 3440 fluorescence intensity (a.u.)
GCCGCCGCCGCCACCATCGCCGGCGCGTCACAGTCCACCACGGAGTCACCTAGTGCAG | 5620 fluorescence intensity (a.u.)
TGACGGGGATGGTTAATATCTACTCACCATGAGGAATAAACGGAGTCACCTAGTGCAG | 21600 fluorescence intensity (a.u.)
CAGCAATCTGTCCCTGATCTGAGAATTTTAGACACTCGTACGGAGTCACCTAGTGCAG | 33900 fluorescence intensity (a.u.)
TTGAAACGTAACACTTGATATATGTATACATTATCCAACCCGGAGTCACCTAGTGCAG | 3150 fluorescence intensity (a.u.)
GCATATATGCCGCTACCTCAGCGCCAACGTACCTGGCGCTCGGAGTCACCTAGTGCAG | 3660 fluorescence intensity (a.u.)

Sequence | binding signal
AAACCAAGAAACGCAACTGAAGCGAGTGGGTGGAGCGAAGCGGAGTCACCTAGTGCAG | 27300 fluorescence intensity (a.u.)
ATTTTGCCTCCCTCATCTCTTGCCCTTGTGTGAATAACATCGGAGTCACCTAGTGCAG | 33300 fluorescence intensity (a.u.)
TAAATATGGACCCACGTGTTATCATGCACACGCCCACATCCGGAGTCACCTAGTGCAG | 3960 fluorescence intensity (a.u.)
TCGTCCCCGTCCACGCCGGCGCCTTCCTCGTCCCAAGGCGCGGAGTCACCTAGTGCAG | 3360 fluorescence intensity (a.u.)
TAAACTCACTGGATGGTCTGCTGCGTGGCGTGGATATCATCGGAGTCACCTAGTGCAG | 3650 fluorescence intensity (a.u.)
GTACGAGACTATGAACTGTATGAGTCACATGTTGAATATTCGGAGTCACCTAGTGCAG | 8000 fluorescence intensity (a.u.)
TAATCAGTCACACACACACCCCTCACACCAGCCGTGTCCACGGAGTCACCTAGTGCAG | 27300 fluorescence intensity (a.u.)
CGGGAGTTTGATACTTTTGGGAACAATTATTTGGAGAGGACGGAGTCACCTAGTGCAG | 3510 fluorescence intensity (a.u.)
CCCTATCCCCTCATCTCACTGCAGCTTTCCACTATACTACCGGAGTCACCTAGTGCAG | 27700 fluorescence intensity (a.u.)
AGTGCTTGGATCAGACATGGCCCAGCTCTGCCCAAGCCCACGGAGTCACCTAGTGCAG | 3550 fluorescence intensity (a.u.)
ACACAAGTCCTCCCGTACGTGGCCGTGGATATACAAACACCGGAGTCACCTAGTGCAG | 3420 fluorescence intensity (a.u.)
AGTGTATCTTGTCAGTATTAATTCCAGTCAGCCATGAATTCGGAGTCACCTAGTGCAG | 3490 fluorescence intensity (a.u.)
CCGTGGGTTCTATAAAGCATGACGATGTGTTTCAGCTGTACGGAGTCACCTAGTGCAG | 4800 fluorescence intensity (a.u.)
CCGAGGCCGAGACGGACACCGCGCCGCGCTGGTCAGCGACCGGAGTCACCTAGTGCAG | 3890 fluorescence intensity (a.u.)
TGAATTTAAACTCTCGCTGACATGCATAAACTTCATTCGTCGGAGTCACCTAGTGCAG | 3160 fluorescence intensity (a.u.)
GTGGAGTAGTGGCGCTTGTGCTTCCACGTCGCCACCAACCCGGAGTCACCTAGTGCAG | 9000 fluorescence intensity (a.u.)
TCAATCAATAGATCGAGCACACATCATCCTAGTCTTTCCTCGGAGTCACCTAGTGCAG | 5140 fluorescence intensity (a.u.)
GAGGAAATCATTTTGGTGCAGCGCAACCATTGATGCTTTTCGGAGTCACCTAGTGCAG | 3200 fluorescence intensity (a.u.)
GTTATTTTAACAAGTCAGCTTGCATTAATGAAAACTTCTGCGGAGTCACCTAGTGCAG | 4300 fluorescence intensity (a.u.)
ACAAATACTGATACATATACCTATACGTATGCGTCACCGTCGGAGTCACCTAGTGCAG | 8380 fluorescence intensity (a.u.)
CCACCTCCACCGACGCCGCCGTCGTGTCGCCGTCTCCGAGCGGAGTCACCTAGTGCAG | 5820 fluorescence intensity (a.u.)

Another view of part of the listing above.
ATCTCATGGGCCATGACGTATACAAACCTATATGGGCCTTCGGAGTCACCTAGTGCAG
  binding signal = 4070 fluorescence intensity (a.u.)
CTGGGTCACAGGTAGTCGCTTCATCGGCAGCCGCGTTGCCCGGAGTCACCTAGTGCAG
  binding signal = 29000 fluorescence intensity (a.u.)

From publication PMC7819943, “Rice protein-binding microarrays: a tool to detect cis-acting elements near promoter regions in rice”
